Source: US7115379

How the values were obtained:
Assay in all cases: binding assays with known chemokine receptors
chemokine receptor CCR 3 = biological target: T1, chemokine receptor CCR 3 (UniProt P51677)
T1 sequence (looked up): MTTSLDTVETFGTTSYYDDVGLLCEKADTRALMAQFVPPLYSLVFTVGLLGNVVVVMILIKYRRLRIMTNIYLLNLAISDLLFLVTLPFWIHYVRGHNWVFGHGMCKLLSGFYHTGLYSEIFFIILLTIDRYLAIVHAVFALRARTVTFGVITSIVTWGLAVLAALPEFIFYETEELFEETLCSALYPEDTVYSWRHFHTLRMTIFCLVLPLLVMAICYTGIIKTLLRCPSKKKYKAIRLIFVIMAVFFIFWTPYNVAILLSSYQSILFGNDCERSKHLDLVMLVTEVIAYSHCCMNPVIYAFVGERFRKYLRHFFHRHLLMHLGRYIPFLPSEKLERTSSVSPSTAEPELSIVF

chemokine receptor CCR 1 = biological target: T2, chemokine receptor CCR 1 (UniProt P32246)
T2 sequence (looked up): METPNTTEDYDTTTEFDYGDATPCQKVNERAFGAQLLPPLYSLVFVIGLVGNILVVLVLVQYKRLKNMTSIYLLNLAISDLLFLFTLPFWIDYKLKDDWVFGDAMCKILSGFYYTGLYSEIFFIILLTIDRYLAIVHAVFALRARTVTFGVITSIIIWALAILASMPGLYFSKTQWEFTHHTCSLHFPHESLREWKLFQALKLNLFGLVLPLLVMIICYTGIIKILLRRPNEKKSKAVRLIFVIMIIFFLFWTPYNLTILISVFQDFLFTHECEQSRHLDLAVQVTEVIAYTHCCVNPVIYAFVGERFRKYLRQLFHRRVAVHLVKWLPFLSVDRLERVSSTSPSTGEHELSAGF

Duffy antigen receptor = biological target: T3, Duffy antigen receptor (UniProt Q16570)
T3 sequence (looked up): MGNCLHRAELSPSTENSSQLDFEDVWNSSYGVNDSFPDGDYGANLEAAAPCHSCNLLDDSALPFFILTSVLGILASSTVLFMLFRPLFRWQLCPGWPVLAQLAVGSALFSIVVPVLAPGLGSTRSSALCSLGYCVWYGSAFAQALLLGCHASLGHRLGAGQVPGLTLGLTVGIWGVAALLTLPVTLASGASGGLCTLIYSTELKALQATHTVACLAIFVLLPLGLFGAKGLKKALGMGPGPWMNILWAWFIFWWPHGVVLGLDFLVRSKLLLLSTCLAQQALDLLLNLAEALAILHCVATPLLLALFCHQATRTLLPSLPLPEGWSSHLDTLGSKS

chemokine receptor CCR 4 = biological target: T4, chemokine receptor CCR 4 (UniProt P51679)
T4 sequence (looked up): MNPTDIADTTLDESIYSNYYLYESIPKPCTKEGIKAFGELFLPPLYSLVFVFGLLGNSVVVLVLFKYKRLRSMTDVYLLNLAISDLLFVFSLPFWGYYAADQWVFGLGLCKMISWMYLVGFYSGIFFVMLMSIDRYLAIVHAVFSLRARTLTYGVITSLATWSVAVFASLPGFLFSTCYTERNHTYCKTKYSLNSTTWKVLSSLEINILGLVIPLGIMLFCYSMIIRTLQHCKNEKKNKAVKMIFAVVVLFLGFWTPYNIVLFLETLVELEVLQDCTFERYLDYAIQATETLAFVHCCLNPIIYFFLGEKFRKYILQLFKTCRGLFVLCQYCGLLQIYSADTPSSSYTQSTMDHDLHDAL

Measured: binding

CX3Ckine (ligand)
no binding: chemokine receptor CCR 3 | chemokine receptor CCR 1 | Duffy antigen receptor | chemokine receptor CCR 4

Results are given in words; binding and its absence hold for the method and conditions named.
